These results are taken from article PMC5024325.

Sequences of proteins named here, by UniProt entry; tags and fusion partners are left off.
UniProt Q7Z434: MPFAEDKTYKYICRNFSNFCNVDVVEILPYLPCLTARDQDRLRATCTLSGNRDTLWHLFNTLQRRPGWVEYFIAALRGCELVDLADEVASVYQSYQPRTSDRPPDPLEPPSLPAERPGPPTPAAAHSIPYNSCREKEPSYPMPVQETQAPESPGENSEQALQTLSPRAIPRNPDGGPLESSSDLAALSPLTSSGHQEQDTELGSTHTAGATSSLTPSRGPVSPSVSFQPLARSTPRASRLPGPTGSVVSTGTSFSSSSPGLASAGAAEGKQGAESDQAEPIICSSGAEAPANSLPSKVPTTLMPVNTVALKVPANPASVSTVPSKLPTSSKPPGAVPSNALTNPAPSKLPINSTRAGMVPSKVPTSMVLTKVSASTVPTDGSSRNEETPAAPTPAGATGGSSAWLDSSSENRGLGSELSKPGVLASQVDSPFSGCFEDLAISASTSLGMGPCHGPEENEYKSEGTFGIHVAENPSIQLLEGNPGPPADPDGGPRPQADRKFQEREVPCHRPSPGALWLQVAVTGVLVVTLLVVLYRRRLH
UniProt Q9Y6K9: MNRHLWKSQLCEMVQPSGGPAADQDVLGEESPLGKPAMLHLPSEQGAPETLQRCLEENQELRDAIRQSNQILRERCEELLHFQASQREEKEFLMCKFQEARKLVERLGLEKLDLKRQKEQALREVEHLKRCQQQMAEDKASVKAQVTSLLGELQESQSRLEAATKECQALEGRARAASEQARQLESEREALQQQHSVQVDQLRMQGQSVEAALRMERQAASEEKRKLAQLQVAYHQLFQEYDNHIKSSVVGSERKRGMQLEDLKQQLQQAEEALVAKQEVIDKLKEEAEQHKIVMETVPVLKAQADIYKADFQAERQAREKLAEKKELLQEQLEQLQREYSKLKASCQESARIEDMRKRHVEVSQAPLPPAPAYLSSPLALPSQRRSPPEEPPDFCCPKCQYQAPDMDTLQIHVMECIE

For test [1], the target named is T1, Endogenous methylcrotonoyl-CoA carboxylase 1 (MCCC1) (human (endogenous in A549)) (UniProt Q96RQ3).
T1 sequence: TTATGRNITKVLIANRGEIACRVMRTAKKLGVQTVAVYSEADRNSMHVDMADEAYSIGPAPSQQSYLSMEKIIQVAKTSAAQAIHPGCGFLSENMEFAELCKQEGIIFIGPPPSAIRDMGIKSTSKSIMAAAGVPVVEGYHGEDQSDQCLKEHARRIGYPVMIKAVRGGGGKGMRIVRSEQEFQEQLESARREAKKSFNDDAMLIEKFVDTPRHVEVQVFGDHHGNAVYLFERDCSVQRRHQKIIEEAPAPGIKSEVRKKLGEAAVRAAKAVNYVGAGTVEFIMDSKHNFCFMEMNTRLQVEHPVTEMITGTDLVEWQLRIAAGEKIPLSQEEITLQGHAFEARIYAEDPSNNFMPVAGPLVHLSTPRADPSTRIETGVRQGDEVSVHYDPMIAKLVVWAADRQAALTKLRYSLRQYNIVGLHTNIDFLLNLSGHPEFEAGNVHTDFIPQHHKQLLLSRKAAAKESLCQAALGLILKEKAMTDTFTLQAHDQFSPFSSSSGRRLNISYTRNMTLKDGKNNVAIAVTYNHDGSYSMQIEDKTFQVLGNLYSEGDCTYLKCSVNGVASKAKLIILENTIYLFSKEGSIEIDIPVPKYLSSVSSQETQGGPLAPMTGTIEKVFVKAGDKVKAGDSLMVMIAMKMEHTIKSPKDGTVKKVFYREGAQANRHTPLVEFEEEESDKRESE
Kind of test: co-IP; endogenous proteins; A549 cells infected with SeV for 12 h or left uninfected; whole-cell lysate; precipitation with anti-MCCC1 or anti-TRAF6 antibody or control IgG on protein G PLUS-Agarose; immunoblot.

In test [2] the target is T2, HA-tagged methylcrotonoyl-CoA carboxylase 1 (MCCC1) (human) (UniProt Q96RQ3).
T2 sequence: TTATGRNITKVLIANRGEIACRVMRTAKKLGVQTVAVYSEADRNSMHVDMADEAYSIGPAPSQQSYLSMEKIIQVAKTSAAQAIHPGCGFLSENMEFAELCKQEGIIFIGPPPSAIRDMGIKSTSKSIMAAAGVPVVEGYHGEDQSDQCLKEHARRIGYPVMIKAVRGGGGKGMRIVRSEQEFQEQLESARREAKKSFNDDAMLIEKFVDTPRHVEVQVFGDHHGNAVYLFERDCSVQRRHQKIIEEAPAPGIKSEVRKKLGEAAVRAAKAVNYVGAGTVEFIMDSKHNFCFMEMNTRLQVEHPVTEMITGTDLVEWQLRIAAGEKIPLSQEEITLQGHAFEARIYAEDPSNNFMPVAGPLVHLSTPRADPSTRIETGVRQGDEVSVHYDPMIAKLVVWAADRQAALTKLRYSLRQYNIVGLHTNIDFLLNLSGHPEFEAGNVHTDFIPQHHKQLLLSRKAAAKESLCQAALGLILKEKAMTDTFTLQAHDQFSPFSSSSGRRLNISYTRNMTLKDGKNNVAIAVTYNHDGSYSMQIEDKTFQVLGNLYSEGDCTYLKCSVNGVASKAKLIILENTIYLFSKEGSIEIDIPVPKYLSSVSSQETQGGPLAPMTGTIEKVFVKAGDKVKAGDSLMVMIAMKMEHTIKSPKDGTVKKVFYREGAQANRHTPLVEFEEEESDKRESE
Kind of test: co-IP; HEK293T cells co-transfected with HA- and FLAG-tagged expression vectors for 48 h; whole-cell lysate (0.01% EDTA, 0.1% Triton X-100); precipitation with anti-HA or anti-FLAG antibody on protein G PLUS-Agarose; immunoblot.

In test [3] the target is FLAG-tagged mitochondrial antiviral signaling protein (MAVS) (UniProt Q7Z434). The description is as above.

These are yes or no findings as the source states them, for the method shown. In cells and extracts the contact can be indirect. Some results given as binding are weak or reduced against the parent protein; the word gives no strength. For some assays here: Where a sequence is shown, tags or fusion partners need not be part of it.

As for “Endogenous mitochondrial antiviral signaling protein (MAVS) (from UniProt Q7Z434 1-540)”, in test [1], the binding result is on record as “binds”.

Regarding “FLAG-tagged NEMO (IKKγ) (from UniProt Q9Y6K9 1-419)”, the binding entry in test [2] is on record as “no binding”.

Regarding “FLAG-tagged mitochondrial antiviral signaling protein (MAVS) (from UniProt Q7Z434 1-540)”, in test [2], the binding entry is “binds”.

B1: HA-tagged methylcrotonoyl-CoA carboxylase 1 (MCCC1) (protein, UniProt Q96RQ3 42-725)
chain: TTATGRNITKVLIANRGEIACRVMRTAKKLGVQTVAVYSEADRNSMHVDMADEAYSIGPAPSQQSYLSMEKIIQVAKTSAAQAIHPGCGFLSENMEFAELCKQEGIIFIGPPPSAIRDMGIKSTSKSIMAAAGVPVVEGYHGEDQSDQCLKEHARRIGYPVMIKAVRGGGGKGMRIVRSEQEFQEQLESARREAKKSFNDDAMLIEKFVDTPRHVEVQVFGDHHGNAVYLFERDCSVQRRHQKIIEEAPAPGIKSEVRKKLGEAAVRAAKAVNYVGAGTVEFIMDSKHNFCFMEMNTRLQVEHPVTEMITGTDLVEWQLRIAAGEKIPLSQEEITLQGHAFEARIYAEDPSNNFMPVAGPLVHLSTPRADPSTRIETGVRQGDEVSVHYDPMIAKLVVWAADRQAALTKLRYSLRQYNIVGLHTNIDFLLNLSGHPEFEAGNVHTDFIPQHHKQLLLSRKAAAKESLCQAALGLILKEKAMTDTFTLQAHDQFSPFSSSSGRRLNISYTRNMTLKDGKNNVAIAVTYNHDGSYSMQIEDKTFQVLGNLYSEGDCTYLKCSVNGVASKAKLIILENTIYLFSKEGSIEIDIPVPKYLSSVSSQETQGGPLAPMTGTIEKVFVKAGDKVKAGDSLMVMIAMKMEHTIKSPKDGTVKKVFYREGAQANRHTPLVEFEEEESDKRESE
As to B1, the binding result in test [3] is on record as “binds”.

B2: FLAG-tagged TRADD (tumor necrosis factor receptor type 1-associated death domain protein) (protein, UniProt Q15628 1-312)
chain: MAAGQNGHEEWVGSAYLFVESSLDKVVLSDAYAHPQQKVAVYRALQAALAESGGSPDVLQMLKIHRSDPQLIVQLRFCGRQPCGRFLRAYREGALRAALQRSLAAALAQHSVPLQLELRAGAERLDALLADEERCLSCILAQQPDRLRDEELAELEDALRNLKCGSGARGGDGEVASAPLQPPVPSLSEVKPPPPPPPAQTFLFQGQPVVNRPLSLKDQQTFARSVGLKWRKVGRSLQRGCRALRDPALDSLAYEYEREGLYEQAFQLLRRFVQAEGRRATLQRLVEALEENELTSLAEDLLGLTDPNGGLA
For the molecule B2, in test [2], the binding result is “binds”.
